Reference: publication PMC7205425
These are yes or no findings as the source states them, for the method shown. Binding seen in cells or lysates may run through a third protein. Some entries that bind do so weakly or less than the wild type. For some assays here: Tags and fused reporters may be left off the sequences shown.

Amino acid sequences for entries named in this document (tags omitted).
UniProt P63092: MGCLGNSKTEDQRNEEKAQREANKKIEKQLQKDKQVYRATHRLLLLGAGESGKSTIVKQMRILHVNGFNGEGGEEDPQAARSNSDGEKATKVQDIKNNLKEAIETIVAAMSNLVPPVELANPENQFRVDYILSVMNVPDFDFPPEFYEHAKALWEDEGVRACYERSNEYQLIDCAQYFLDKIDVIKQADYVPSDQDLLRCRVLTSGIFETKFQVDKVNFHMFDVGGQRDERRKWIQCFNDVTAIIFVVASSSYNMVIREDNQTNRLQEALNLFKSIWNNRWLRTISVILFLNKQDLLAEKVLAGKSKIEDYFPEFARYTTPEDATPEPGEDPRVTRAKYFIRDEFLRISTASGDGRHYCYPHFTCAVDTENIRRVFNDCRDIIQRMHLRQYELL
UniProt Q61056: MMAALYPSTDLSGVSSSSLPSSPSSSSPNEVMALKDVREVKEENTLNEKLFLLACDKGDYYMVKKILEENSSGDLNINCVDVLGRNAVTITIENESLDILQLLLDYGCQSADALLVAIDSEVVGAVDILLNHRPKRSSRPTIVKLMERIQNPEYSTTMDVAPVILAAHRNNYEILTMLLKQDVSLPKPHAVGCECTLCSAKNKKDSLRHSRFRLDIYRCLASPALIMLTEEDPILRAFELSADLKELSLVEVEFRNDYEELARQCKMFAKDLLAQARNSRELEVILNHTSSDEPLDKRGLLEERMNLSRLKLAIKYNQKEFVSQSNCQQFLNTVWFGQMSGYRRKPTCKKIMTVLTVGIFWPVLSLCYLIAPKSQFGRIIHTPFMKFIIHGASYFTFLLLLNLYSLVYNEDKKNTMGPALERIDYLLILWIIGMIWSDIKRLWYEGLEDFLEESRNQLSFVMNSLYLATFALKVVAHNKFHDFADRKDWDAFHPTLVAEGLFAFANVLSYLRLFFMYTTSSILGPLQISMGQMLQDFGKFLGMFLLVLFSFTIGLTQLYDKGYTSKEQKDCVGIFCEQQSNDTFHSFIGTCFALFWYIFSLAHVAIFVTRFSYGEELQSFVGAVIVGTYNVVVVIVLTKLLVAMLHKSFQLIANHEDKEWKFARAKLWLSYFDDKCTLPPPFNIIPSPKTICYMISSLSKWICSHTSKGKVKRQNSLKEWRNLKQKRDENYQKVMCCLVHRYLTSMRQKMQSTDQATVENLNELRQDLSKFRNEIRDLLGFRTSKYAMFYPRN

Key:
[1] = target: T1, G protein subunit α 11 (Gα11), myc-tagged (mouse) (UniProt P21278); assay: co-IP; HEK293T cells transiently cotransfected; native lysis solution (1% Triton X-100, 150 mM NaCl, 10 mM Tris-HCl pH 7.5, 1 mM EDTA, 1 mM EGTA, 0.5% Igepal, 10% sucrose), 4°C; Gα11 immunoprecipitated with anti-myc, GαS with anti-GαS; TRPC1 detected in the complexes with 1F1
T1 sequence: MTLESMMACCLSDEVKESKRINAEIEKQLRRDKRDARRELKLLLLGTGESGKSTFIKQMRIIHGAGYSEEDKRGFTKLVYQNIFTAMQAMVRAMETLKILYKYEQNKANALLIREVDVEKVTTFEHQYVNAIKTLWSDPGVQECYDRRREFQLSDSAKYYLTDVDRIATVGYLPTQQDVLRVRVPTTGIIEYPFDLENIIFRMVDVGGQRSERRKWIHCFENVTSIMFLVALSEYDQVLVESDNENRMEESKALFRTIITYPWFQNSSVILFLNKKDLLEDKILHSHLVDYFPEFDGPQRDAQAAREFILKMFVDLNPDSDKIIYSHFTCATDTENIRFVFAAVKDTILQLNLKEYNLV

GαS = GαS (UniProt P63092); assay: as above

In the case of “short form of TRPC1α (from UniProt Q61056 1-793)”, the binding [1] was “binds” and the binding (GαS) was “no binding”.
